Test results reported in PubChem BioAssay AID445 (National Center for Advancing Translational Sciences (NCATS), 2006).
Some of the results follow. The main result of the screen is listed elsewhere. These columns were measured beside it and carry no call. Most of these compounds were active or inconclusive in the main read-out, so they are no random draw. The note in brackets gives the kind of curve behind each potency; many fits are weak.

Assay: IkB Signaling
Details: ABC-DLBCL IkBa-CBG/CBR dual luciferase ratio (green luciferase fused to IkBa over red control in OCI-Ly3 lymphoma cells), 4 h
Summary of the method: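 Curves were fitted separately to fusion (green), unfused (red) and ratio luminescence, then classed by r2, magnitude and activity. Cells: OCI-Ly3, 4 h compound plus doxycycline at 37C; 10 uM MG-132 defined full response.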

[1] = measured here: control luc red channel unless noted

## Cc1cccc(NC(=O)c2ccc(-c3ccccc3)s2)c1
[1]
  AC50: 3.98 µM [falling, partial curve]

## CCC(Oc1ccccc1)C(=O)Nc1nnc(S(=O)(=O)N(CC)CC)s1 (stereo unspecified)
[1]
  AC50: 3.16 µM [falling, partial curve]

## CCc1ccc(NC(=O)c2cnn(-c3ccccc3)c2-n2cccc2)cc1
[1]
  AC50: 20 µM [falling, single point]

## CCC(C)c1ccc2oc(-c3ccc(NC(=O)c4cc5ccccc5o4)cc3)nc2c1 (stereo unspecified)
[1]
  AC50: 10 µM [falling, partial curve, poor fit]

## Cc1cccc(Cn2c(=O)n3nc(-c4ccccc4)nc3c3ccccc32)c1
[1]
  AC50: 6.31 µM [falling, full curve]

## CCCC(=O)Nc1nnc(S(=O)(=O)N(C)Cc2ccc(Cl)cc2)s1
[1]
  AC50: 5.01 µM [falling, full curve]

## Cn1c(=O)[nH]c2cc(-c3noc(-c4ccc(Br)cc4)n3)ccc21
[1]
  AC50: 2 µM [rising, full curve]

## COc1ccccc1Nc1nc(-c2ccccc2F)nc2ccccc12
[1]
  AC50: 12.6 µM [falling, partial curve]

## COc1ccc(OC)c(S(=O)(=O)Nc2ccc3oc4c(c3c2)C(=O)CCC4)c1
[1]
  AC50: 10 µM [falling, partial curve]

## COc1cc2c(C(=O)Nc3cc(OC)c(OC)c(OC)c3)cn(C)c(=O)c2cc1OC
[1]
  AC50: 15.8 µM [falling, partial curve]

## Cc1ccc(-n2nc(C)c3c2OC(N)=C(C#N)C3c2ccc(F)cc2)cc1 (stereo unspecified)
[1]
  AC50: 15.8 µM [falling, partial curve]

## CCN(CC)S(=O)(=O)c1ccc2c(c1)N(CC(=O)Nc1ccccc1F)C(=O)C1CCCN21 (stereo unspecified)
[1]
  AC50: 15.8 µM [falling, partial curve]

## Cc1cnc(NC(=O)CSc2nnc(-c3ccccc3)n2Cc2ccccc2)s1
[1]
  AC50: 15.8 µM [falling, partial curve]

## O=C1CS(=O)(=O)C2(C(=O)N(Cc3ccccc3Cl)c3ccccc32)N1c1ccc(F)cc1 (stereo unspecified)
[1]
  AC50: 10 µM [falling, partial curve]

## CCOc1cccc(NC(=O)C2CC(=O)N(CC)C(=Nc3ccc(F)cc3)S2)c1 (stereo unspecified)
[1]
  AC50: 31.6 µM [falling, single point]

## Cc1ccc(NC(=O)/C(C#N)=C/c2ccc(-c3ccc(Cl)c(C(=O)O)c3)o2)cc1C
[1]
  AC50: 12.6 µM [falling, partial curve]

## CCOc1ccc(CCNC(=O)c2cc3cccc4c3n2CCS4)cc1
[1]
  AC50: 20 µM [falling, partial curve]

## COC(=O)c1c(-c2ccc(Cl)cc2)noc1N1CCN(c2cc(C)ccc2C)CC1
[1]
  AC50: 1.58 µM [falling, partial curve]

## COc1cccc(CN2CCN(C(=O)c3cccc4ccccc34)CC2)c1OC
[1]
  AC50: 31.6 µM [falling, single point]

## CCCn1c(SCC(=O)Nc2ccccc2-c2ccccc2)nnc1-c1ccoc1C
[1]
  AC50: 31.6 µM [falling, single point]

## Cc1cc(C)c(NC(=O)CSc2ncc3c(n2)-c2cc(Cl)ccc2N(C)S3(=O)=O)c(C)c1
Measured here: IkB-luc green channel
  AC50: 1.58 µM [rising, full curve]
Measured here: control luc red channel
  AC50: 1.58 µM [rising, full curve]

## C=Cc1ccc(Cn2c(C(=O)O)c(CNCc3ccc(F)cc3)c3ccc(C)cc32)cc1
[1]
  AC50: 12.6 µM [falling, partial curve]

## COC(=O)c1c(NC(=O)c2ccc(S(=O)(=O)N3CCC(C)CC3)cc2)sc2c1CCN(C)C2
[1]
  AC50: 31.6 µM [falling, single point]

## Cc1ccccc1CNC(=O)c1cnc2sc(N3CCC(C)CC3)nn2c1=O
[1]
  AC50: 10 µM [rising, partial curve]

## Cc1cc(C)c(NC(=O)C2CCN(c3nc4ccccc4n4cccc34)CC2)c(C)c1
[1]
  AC50: 20 µM [falling, partial curve]

## Cc1sc2nc(SCc3nc4ccccc4[nH]3)n(Cc3ccco3)c(=O)c2c1C
[1]
  AC50: 2 µM [falling, full curve]

## CN(C(=O)CSc1nnc(NC(=O)Nc2ccccc2)s1)c1ccccc1
[1]
  AC50: 39.8 µM [falling, single point]

## Brc1cccc(-c2nnn3c2nc(NCc2ccc4c(c2)OCO4)c2ccccc23)c1
[1]
  AC50: 0.0631 µM [falling, full curve]

## O=C(NCC(c1cccnc1)N1CCc2ccccc21)c1cccc(Br)c1 (stereo unspecified)
[1]
  AC50: 25.1 µM [falling, single point]

## COc1ccc(-n2ncc(C(=O)NCc3ccco3)c2C2CCN(C(=O)OC(C)(C)C)CC2)cc1
[1]
  AC50: 20 µM [falling, partial curve]
